This is one part of the list.
Experiments:
Assay in all cases: glycan array binding signal (z-score within array); higher = stronger binding
Conditions in all cases: glycan notation: IUPAC condensed, linker removed
Gal6S(b1-4)Glc6S = molecular target: Gal6S(b1-4)Glc6S
In short: (§1)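 Glycan array binding is given as a within-array Z-score, which can be read as non-binding when negative. The arrays, 3228 of them, came from the Consortium for Functional Glycomics database and were retained only where the protein sequence was available. Z-scores were averaged across arrays of the same protein sequence at different concentrations or buffers and across linkers.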

Gal6S(b1-4)GlcNAc = molecular target: Gal6S(b1-4)GlcNAc
In short: as §1

Gal6S(b1-4)GlcNAc6S = molecular target: Gal6S(b1-4)GlcNAc6S
In short: as §1

GalNAc(a1-3)Gal = molecular target: GalNAc(a1-3)Gal
In short: as §1

GalNAc(a1-3)GalNAc = molecular target: GalNAc(a1-3)GalNAc
In short: as §1

[1] = molecular target: GalNAc(a1-3)GalNAc(b1-3)Gal(a1-4)Gal(b1-4)Glc
In short: as §1

[2] = molecular target: GalNAc(a1-3)GalNAc(b1-3)Gal(a1-4)Gal(b1-4)GlcNAc
In short: as §1

GalNAc(b1-3)Gal = molecular target: GalNAc(b1-3)Gal
In short: as §1

[3] = molecular target: GalNAc(b1-3)Gal(a1-4)Gal(b1-4)GlcNAc
In short: as §1

[4] = molecular target: GalNAc(b1-3)Gal(a1-4)Gal(b1-4)GlcNAc(b1-3)Gal(b1-4)Glc
In short: as §1

[5] = molecular target: GalNAc(b1-3)Gal(a1-6)Gal(b1-4)Glc
In short: as §1

GalNAc(b1-3)GalNAc = molecular target: GalNAc(b1-3)GalNAc
In short: as §1

GalNAc(b1-3)GlcNAc = molecular target: GalNAc(b1-3)GlcNAc
In short: as §1

GalNAc(b1-4)Gal(b1-4)Glc = molecular target: GalNAc(b1-4)Gal(b1-4)Glc
In short: as §1

GalNAc(b1-4)GlcNAc = molecular target: GalNAc(b1-4)GlcNAc
In short: as §1

[6] = molecular target: GalNAc(b1-4)GlcNAc(b1-2)Man
In short: as §1

[7] = molecular target: GalNAc(b1-4)GlcNAc(b1-2)Man(a1-3)[GalNAc(b1-4)GlcNAc(b1-2)Man(a1-6)]Man(b1-4)GlcNAc(b1-4)GlcNAc
In short: as §1

[8] = molecular target: GalNAc(b1-4)GlcNAc(b1-3)GalNAc(b1-4)GlcNAc
In short: as §1

GalNAc(b1-4)GlcNAc6S = molecular target: GalNAc(b1-4)GlcNAc6S
In short: as §1

GalNAc(b1-6)GalNAc = molecular target: GalNAc(b1-6)GalNAc
In short: as §1

GalNAc3S(b1-4)GlcNAc = molecular target: GalNAc3S(b1-4)GlcNAc
In short: as §1

GalNAc3S(b1-4)GlcNAc3S = molecular target: GalNAc3S(b1-4)GlcNAc3S
In short: as §1

[9] = molecular target: GalNAc3S(b1-4)[Fuc(a1-3)]GlcNAc
In short: as §1

GalNAc4S6S(b1-4)GlcNAc = molecular target: GalNAc4S6S(b1-4)GlcNAc
In short: as §1

GalNAc6S(b1-4)GlcNAc = molecular target: GalNAc6S(b1-4)GlcNAc
In short: as §1

Glc(a1-4)Glc = molecular target: Glc(a1-4)Glc
In short: as §1

[10] = molecular target: Glc(a1-4)Glc(a1-4)Glc(a1-4)Glc
In short: as §1

Glc(a1-6)Glc(a1-6)Glc = molecular target: Glc(a1-6)Glc(a1-6)Glc
In short: as §1

[11] = molecular target: Glc(a1-6)Glc(a1-6)Glc(a1-6)Glc
In short: as §1

Glc(b1-4)Glc = molecular target: Glc(b1-4)Glc
In short: as §1

Glc(b1-6)Glc = molecular target: Glc(b1-6)Glc
In short: as §1

GlcA(b1-3)Gal = molecular target: GlcA(b1-3)Gal
In short: as §1

GlcA(b1-3)GlcNAc = molecular target: GlcA(b1-3)GlcNAc
In short: as §1

GlcA(b1-6)Gal = molecular target: GlcA(b1-6)Gal
In short: as §1

[12] = molecular target: GlcA3S(b1-3)Gal(b1-4)GlcNAc(b1-2)Man
In short: as §1

[13] = molecular target: GlcA3S(b1-3)Gal(b1-4)GlcNAc(b1-3)Gal(b1-4)Glc
In short: as §1

[14] = molecular target: GlcNAc(a1-3)Gal(b1-4)GlcNAc
In short: as §1

B1: GS13599A-bth-520-23-520 (Bacteroides thetaiotaomicron) (protein)
chain: SEDTMDRINKDHDHTTSVASRFILADVITSTAFSNASGDINTYASSYIEYEVGVDNQLYYAEVRENEPSSSSTFNNSWNGIYSSLKNARIIIDQCGEGGRDHGNDVTRGMAEVMAAYNCALIADFFGDAPCSQAALVDEKGSPVYMTPKMDTQQEIYTQIISYLDDAIANLQKEDLADVTEQDFLYAGDADKWLKFAYGLKARYTMRLINRSSNKSADYEKVLDYVSKSFTSADDQAAFDIYDSNNINPFYGFYNSRAGFGASTSLGTKLLAYNDPRANRAFFTPIVDKKRSQVAANDPSLVPAPNGSPDQSTSKYGISAFVYAKTAPTLLMSYHELMFLKAEALCRLNRDAEDALKEAVVAGLLNAENSISIAIKELGSGLNTNSSEVITETSAGKYFDDVVKAKYAANPLQETMIQKYLAMWGASGEATETYNDFRRMKGLNENFITLTNPNNSSKFPLRYPYGNSDTAANPEVKAAYGNGDYVYSEPVWWAGGSR
Question: For B1, which “glycan array binding signal (z-score)” value (Gal6S(b1-4)Glc6S) is on record?
Answer: 0.258

Question: And the “glycan array binding signal (z-score)” value (Gal6S(b1-4)GlcNAc)?
Answer: -0.54

Question: What about the “glycan array binding signal (z-score)” value (Gal6S(b1-4)GlcNAc6S) of the same binder?
Answer: 0.445

Question: What about the “glycan array binding signal (z-score)” value (GalNAc(a1-3)Gal) of the same binder?
Answer: -0.129

Question: And the “glycan array binding signal (z-score)” value (GalNAc(a1-3)GalNAc)?
Answer: -0.636

Question: And the “glycan array binding signal (z-score)” value [1]?
Answer: -1.22

Question: What about the “glycan array binding signal (z-score)” value [2] of the same binder?
Answer: 0.714

Question: And the “glycan array binding signal (z-score)” value (GalNAc(b1-3)Gal)?
Answer: 0.44

Question: What about the “glycan array binding signal (z-score)” value [3] of the same binder?
Answer: -1.25

Question: And the “glycan array binding signal (z-score)” value [4]?
Answer: -0.224

Question: What about the “glycan array binding signal (z-score)” value [5] of the same binder?
Answer: -1.35

Question: What about the “glycan array binding signal (z-score)” value (GalNAc(b1-3)GalNAc) of the same binder?
Answer: -1.13

Question: What about the “glycan array binding signal (z-score)” value (GalNAc(b1-3)GlcNAc) of the same binder?
Answer: -0.074

Question: And the “glycan array binding signal (z-score)” value (GalNAc(b1-4)Gal(b1-4)Glc)?
Answer: 1.02

Question: And the “glycan array binding signal (z-score)” value (GalNAc(b1-4)GlcNAc)?
Answer: 1.11

Question: What about the “glycan array binding signal (z-score)” value [6] of the same binder?
Answer: 2.03

Question: And the “glycan array binding signal (z-score)” value [7]?
Answer: -1.1

Question: And the “glycan array binding signal (z-score)” value [8]?
Answer: -0.499

Question: What about the “glycan array binding signal (z-score)” value (GalNAc(b1-4)GlcNAc6S) of the same binder?
Answer: -0.23

Question: What about the “glycan array binding signal (z-score)” value (GalNAc(b1-6)GalNAc) of the same binder?
Answer: -0.769

Question: And the “glycan array binding signal (z-score)” value (GalNAc3S(b1-4)GlcNAc)?
Answer: 0.897

Question: And the “glycan array binding signal (z-score)” value (GalNAc3S(b1-4)GlcNAc3S)?
Answer: 1.12

Question: What about the “glycan array binding signal (z-score)” value [9] of the same binder?
Answer: 2.41

Question: What about the “glycan array binding signal (z-score)” value (GalNAc4S6S(b1-4)GlcNAc) of the same binder?
Answer: -1.28

Question: What about the “glycan array binding signal (z-score)” value (GalNAc6S(b1-4)GlcNAc) of the same binder?
Answer: 1.23

Question: And the “glycan array binding signal (z-score)” value (Glc(a1-4)Glc)?
Answer: -0.751

Question: What about the “glycan array binding signal (z-score)” value [10] of the same binder?
Answer: -0.024

Question: And the “glycan array binding signal (z-score)” value (Glc(a1-6)Glc(a1-6)Glc)?
Answer: 0.175

Question: And the “glycan array binding signal (z-score)” value [11]?
Answer: -0.044

Question: And the “glycan array binding signal (z-score)” value (Glc(b1-4)Glc)?
Answer: 0.031

Question: What about the “glycan array binding signal (z-score)” value (Glc(b1-6)Glc) of the same binder?
Answer: -0.602

Question: And the “glycan array binding signal (z-score)” value (GlcA(b1-3)Gal)?
Answer: -1.08

Question: And the “glycan array binding signal (z-score)” value (GlcA(b1-3)GlcNAc)?
Answer: -0.356

Question: What about the “glycan array binding signal (z-score)” value (GlcA(b1-6)Gal) of the same binder?
Answer: 1.77

Question: And the “glycan array binding signal (z-score)” value [12]?
Answer: -0.448

Question: What about the “glycan array binding signal (z-score)” value [13] of the same binder?
Answer: 0.88

Question: What about the “glycan array binding signal (z-score)” value [14] of the same binder?
Answer: -0.66

— the supplement of paper PMC8728848
